{
  "source": "PubChem BioAssay AID540303",
  "about": "(National Center for Advancing Translational Sciences (NCATS), 2011)",
  "note": "Several values for one entry are separate records, joined by “and”; a condition that tells them apart may be missing. Identical values can stand only once. The whole screen tested about 330,000 compounds, of which about 1,000 (0.3%) were called active. This list was built around the results that the source calls inconclusive (neither active nor inactive); the mix of calls is not that of the screen. Calls follow the shape of the dose curve; as a rule, active = well fitted inhibition curve with a large enough effect; inconclusive = small, poorly fitted or top-dose-only effect; inactive = no such curve, though single readings can be large or run the other way; tested in mouse RAW 264.7 cells. Potencies of inconclusive entries are doubtful fits and often do not repeat. Potency is read from the fitted curve at half-maximal effect.",
  "data": [
    {"assay": "qHTS for Inhibitors of Cell Surface uPA Generation; also: nearly all actives have a fitted effect of over 55% in size", "conditions": "cell surface uPA generation assay; series mostly up to 38.3 µM", "how_it_was_run": "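Using RAW 264.7 macrophages, the screen measures whether compounds keep cellular ATP up by preventing uPA-driven LF translocation. Treatment lasted 24 h at 37 C, with a final top concentration of 38.3 uM, and luminescence was the readout.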", "values": [
      {"smiles": "COc1cccc(C(=O)Oc2c(Br)cc(Br)cc2/C=N/NC(=O)c2cc(C)[nH]n2)c1", "Potency": "active: 3.98 µM"},
      {"smiles": "Cc1cc(NC(=O)c2ccc(NC(=O)C(C)C)cc2)no1", "Potency": "inactive"},
      {"smiles": "COc1cc(CC(=O)OCC(=O)c2c[nH]c3ccccc23)cc(OC)c1OC", "Potency": "inconclusive: 12.6 µM [inhibitor, single point]"},
      {"smiles": "CN(C)CCCNc1ncnc2sc(-c3ccccc3)cc12", "Potency": "inconclusive: 7.94 µM [inhibitor, partial curve, poor fit]"},
      {"smiles": "COc1cc(F)c(C2=CC(=O)C[C@H](c3ccc(F)cc3)C2)cc1F", "Potency": "inactive"},
      {"smiles": "CC(C)(C)c1cc(CCC(=O)NNC(=S)NC(=O)c2ccccc2)cc(C(C)(C)C)c1O", "Potency": "inconclusive: 10 µM [inhibitor, partial curve, poor fit]"},
      {"smiles": "Nc1ccc[n+](CC(=O)c2ccccc2)c1", "Potency": "inactive"},
      {"smiles": "C=CC[C@@H](CC(=O)N(CCO)Cc1ccccc1)C(=O)NC[C@H](OC(=O)[C@@H](CC=C)Cc1ccc(F)cc1)c1ccccc1", "Potency": "inconclusive: 12.6 µM [inhibitor, single point]"},
      {"smiles": "Cc1ccc2nc3c(c(Nc4ccc(O)cc4)c2c1)CCC3", "Potency": "inconclusive: 12.6 µM [inhibitor, single point]"},
      {"smiles": "CCC(=O)N(CCC(Cc1ccccc1)c1ccc2c(c1)OCO2)Cc1ccccc1F", "note": "(stereo unspecified)", "Potency": "inactive"},
      {"smiles": "CCN(Cc1ccccc1)C(=O)c1cccc(S(=O)(=O)N2CCN(c3ccc(F)cc3)CC2)c1", "Potency": "inconclusive: 12.6 µM [inhibitor, partial curve, poor fit]"},
      {"smiles": "O=S(=O)(O)c1cccc2cccc(Nc3ccccc3)c12", "Potency": "inconclusive: 2.51 µM [inhibitor, full curve, poor fit]"},
      {"smiles": "CN(C)c1ccc(-c2c(-c3ccc4c(c3)OCO4)noc2-c2ccsc2)cn1", "Potency": "inactive"},
      {"smiles": "COc1cccc(NC(=O)CSc2nc3c(oc4ccccc43)c(=O)[nH]2)c1", "Potency": "inconclusive: 11.2 µM [inhibitor, single point]"},
      {"smiles": "O=C(Nc1scc(-c2ccccc2)c1C(=O)O)c1ccc(F)cc1", "Potency": "inconclusive: 10 µM [inhibitor, partial curve, poor fit]"},
      {"smiles": "COc1ccc2c(c1)c(/C=C/c1cc[n+](C)cc1)cn2C", "Potency": "inactive"},
      {"smiles": "COc1cc(C#Cc2c(-c3cncn3C)n(C)c3ccc(-c4ccc5cc[nH]c5c4)cc23)cc(OC)c1", "Potency": "inconclusive: 12.6 µM [inhibitor, single point]"},
      {"smiles": "Cc1ccc2nc(C3CCCN(C(=S)Nc4cccc(C)c4C)C3)[nH]c2c1", "note": "(stereo unspecified)", "Potency": "inconclusive: 7.94 µM [inhibitor, single point]"},
      {"smiles": "COc1ccc(/C=C/c2c(-c3ccc(OC)cc3)oc(=O)c3cc(OC)c(OC)cc23)cc1", "Potency": "inactive"},
      {"smiles": "COc1ccc(C)cc1-n1nnnc1SCC(=O)c1ccc2c(c1)OCCO2", "Potency": "inactive"},
      {"smiles": "Cc1cc(/C(N)=N/OC(=O)Nc2ccc(Cl)cc2)no1", "Potency": "inactive"},
      {"smiles": "CCc1cccc(CC)c1NC(=O)Cn1c(-c2ccccc2Cl)nc2ccccc21", "Potency": "inactive"},
      {"smiles": "COc1ccc(C(=O)C(CN2CCOCC2)c2ccccc2)cc1", "note": "(stereo unspecified)", "Potency": "inconclusive: 1.26 µM [inhibitor, full curve, poor fit]"},
      {"smiles": "Cc1oc(-c2cccc(Cl)c2)nc1CN1CCC(C(=O)NCCCN2CCCC2=O)CC1", "Potency": "inconclusive: 28.2 µM [inhibitor, single point]"},
      {"smiles": "COc1ccc(NC(=O)c2ccccc2)cc1", "Potency": "inconclusive: 12.6 µM [inhibitor, partial curve, poor fit]"},
      {"smiles": "CCc1nn(CCCC(=O)N2CCN(c3cccc(C)c3C)CC2)c(=O)c2cc3occc3n12", "Potency": "inconclusive: 6.31 µM [inhibitor, single point]"},
      {"smiles": "COc1ccc(N2CCN(CC(=O)Nc3nc(C)cs3)CC2)cc1", "Potency": "inactive"},
      {"smiles": "CCCNCc1cc(OCC)c(OCC(=O)Nc2ccccc2)cc1Br", "Potency": "inconclusive: 0.316 µM [inhibitor, partial curve, poor fit]"},
      {"smiles": "COc1ccc2[nH]c(-c3ccc(C)cc3)cc(=O)c2c1", "Potency": "active: 2.82 µM"},
      {"smiles": "COc1ccc([N+](=O)[O-])cc1NC(=O)Cc1ccc(Cl)cc1", "Potency": "inactive"},
      {"smiles": "COc1ccccc1N(C)S(=O)(=O)c1ccc(C(=O)Nc2cccc(Br)c2)cc1", "Potency": "inactive"},
      {"smiles": "COc1ccc(-c2cc3ccc(OCC(N)=O)cc3oc2=O)cc1OC", "Potency": "inactive"},
      {"smiles": "COc1cc2c(cc1OC)CN(C(=O)c1ccc3nc[nH]c3c1)CC2", "Potency": "inconclusive: 4.47 µM [inhibitor, partial curve, poor fit]"},
      {"smiles": "O=C(NCC1CCCO1)C(Cc1ccccc1)N1C(=O)C2C3C=CC(C4CC34)C2C1=O", "note": "(stereo unspecified)", "Potency": "inactive"},
      {"smiles": "Cc1nc(NC(=O)C(Cl)Cl)sc1C(=O)N(C)C", "Potency": "inactive"},
      {"smiles": "Cc1nn(CC(=O)Nc2ccc(N3CCOCC3)cc2)c(C)c1[N+](=O)[O-]", "Potency": "inactive"},
      {"smiles": "CCCC(C(=O)Nc1ccc(S(=O)(=O)N2CCOCC2)cc1)c1ccccc1", "note": "(stereo unspecified)", "Potency": "inconclusive: 0.501 µM [inhibitor, full curve, poor fit]"},
      {"smiles": "COc1ccc(-c2nc(CSCC(=O)N3CCN(c4cccc(C)c4)C(C)C3)c(C)o2)cc1OC", "note": "(stereo unspecified)", "Potency": "inconclusive: 7.94 µM [inhibitor, single point]"},
      {"smiles": "Cc1ccc(NC(=O)c2cccc(S(=O)(=O)NCc3ccccc3)c2)nc1", "Potency": "inconclusive: 22.4 µM [inhibitor, single point]"},
      {"smiles": "COc1cc2c(cc1OC)-c1cc(Nc3ccc(F)cc3)nc(=O)n1CC2", "Potency": "inactive"},
      {"smiles": "CC(=O)Oc1ccc(N(C(C)=O)S(=O)(=O)c2cccs2)c2ccccc12", "Potency": "inconclusive: 11.2 µM [inhibitor, single point]"},
      {"smiles": "O=C(CCC(=O)N1CCN(S(=O)(=O)c2ccc(Cl)cc2)CC1)NCc1cccc(C(F)(F)F)c1", "Potency": "active: 12.6 µM"},
      {"smiles": "COc1ccccc1/C=C1\\SC(=S)N(CCC(=O)NCCCn2ccnc2)C1=O", "Potency": "inactive"},
      {"smiles": "Cc1ccccc1-n1nnnc1Sc1nnnn1-c1ccccc1", "Potency": "inactive"},
      {"smiles": "NS(=O)(=O)c1cc(C(=O)OCC(=O)c2ccc3c(c2)OCCO3)ccc1Cl", "Potency": "inconclusive: 28.2 µM [inhibitor, single point]"},
      {"smiles": "CC(C)NC(=O)NC(=O)COC(=O)c1ccc([N+](=O)[O-])cc1Cl", "Potency": "inactive"},
      {"smiles": "CCOc1ccc(-c2cc(CCCC(=O)NCc3cccnc3)no2)cc1", "Potency": "inconclusive: 12.6 µM [inhibitor, single point]"},
      {"smiles": "CC(C)(C)c1ccc(C(=O)NC(=O)CSc2n[nH]c(N)n2)cc1", "Potency": "inconclusive: 3.98 µM [inhibitor, partial curve]"},
      {"smiles": "COc1ccc(-c2nnc(NC(=O)c3cc(Cl)ccc3Cl)o2)cc1", "Potency": "inconclusive: 10 µM [inhibitor, partial curve, poor fit]"},
      {"smiles": "O=c1cc2oc3cc(O)c(O)cc3c(-c3ccccc3[N+](=O)[O-])c-2cc1O", "Potency": "inconclusive: 7.94 µM [inhibitor, partial curve, poor fit]"},
      {"smiles": "COc1ccccc1Nc1nc(C)nc2c1oc1ccccc12", "Potency": "inactive"},
      {"smiles": "Cc1cc(N2CCOCC2)nc(SCc2ccc(Cl)cc2Cl)n1", "Potency": "inactive"},
      {"smiles": "CCN(CC)CCCNc1cc2n(c(=O)n1)CCc1cc(OC)c(OC)cc1-2", "Potency": "inactive"},
      {"smiles": "COc1ccc(/C=C\\C(=O)c2c(O)ccc3c(C)cc(=O)oc23)cc1OC", "Potency": "inconclusive: 11.2 µM [inhibitor, single point]"},
      {"smiles": "COC(=O)Oc1ccc(/C=N/NC(=O)CN(c2ccccc2Br)S(C)(=O)=O)cc1OC", "Potency": "inconclusive: 5.01 µM [inhibitor, partial curve, poor fit]"},
      {"smiles": "CCOC(=O)Cn1c(=NC(=O)CSC(C)=O)sc2ccccc21", "Potency": "inconclusive: 14.1 µM [inhibitor, partial curve, poor fit]"},
      {"smiles": "O=C(/C=C/c1c(F)cccc1Cl)c1ccc(O)cc1", "Potency": "inconclusive: 4.47 µM [inhibitor, partial curve, poor fit]"},
      {"smiles": "O=C(CN1C(=O)CSc2ccc(S(=O)(=O)N3CCCCC3)cc21)NCc1cccnc1", "Potency": "inconclusive: 0.316 µM [inhibitor, full curve, poor fit]"},
      {"smiles": "Cc1ccc(-n2c(C)cc(C(=O)NS(=O)(=O)c3ccc(C)cc3)c2C)cc1", "Potency": "inactive"},
      {"smiles": "COCCN(C(=O)CCC(=O)Nc1cc(C)on1)C(C(=O)NC1CCCC1)c1ccc(C(C)C)cc1", "note": "(stereo unspecified)", "Potency": "inactive"},
      {"smiles": "Oc1ccc(-c2nc3ccccc3s2)cc1", "Potency": "active: 6.31 µM"},
      {"smiles": "O=C(CNC(=O)c1ccco1)N=Nc1c(O)n(CCc2ccccc2)c2ccccc12", "Potency": "active: 1.12 µM"},
      {"smiles": "COc1ccc2c(c1)CCc1sc(NC(=O)c3ccco3)nc1-2", "Potency": "inactive"},
      {"smiles": "CN(Cc1cccnc1)C(=O)c1cc(COc2ccc3c(c2)CCCC3)on1", "Potency": "inconclusive: 3.16 µM [inhibitor, partial curve, poor fit]"},
      {"smiles": "CCOC(=O)C1CCN(CCC(=O)Nc2ccc(C)c(C)c2)CC1", "Potency": "inconclusive: 0.0001 µM [inhibitor]"},
      {"smiles": "CN(Cc1ccccc1)C(=C(Cl)Cl)C(=C1NCCN1)[N+](=O)[O-]", "Potency": "inactive"},
      {"smiles": "COc1cc(OC)cc(-c2cc3cc4c(cc3cn2)OCO4)c1", "Potency": "inconclusive: 1 µM [inhibitor, full curve, poor fit]"},
      {"smiles": "COc1ccc(S(=O)(=O)N2CCN(c3nn(C)c(=O)n(C)c3=O)CC2)cc1", "Potency": "inactive"},
      {"smiles": "CCc1cc(Cl)c(OC)c(C(=O)NC[C@@H]2CCCN2CC)c1O", "Potency": "inconclusive: 10 µM [inhibitor, partial curve] and inconclusive: 4.47 µM [inhibitor, partial curve, poor fit]"},
      {"smiles": "CC(C)c1cc(C(=O)NC2CCCc3c2cnn3-c2ccccc2F)no1", "note": "(stereo unspecified)", "Potency": "inconclusive: 10 µM [inhibitor, partial curve]"},
      {"smiles": "Cc1cccnc1NC(=O)CNC(=O)c1sc2ccccc2c1Cl", "Potency": "inconclusive: 0.355 µM [inhibitor, full curve, poor fit]"}
    ]}
  ]
}
